From patent US12527762B2 (priority 2021, dated 2026)

Tested on: ZR-75-1 hormone-positive breast cancer cell line
Experiment: Luminescent cell viability assay (CellTiter glo), subtype-specific breast cancer cell lines
Assay type: cell-based
Conditions: Homo sapiens

Q: CC/C(=C(\c1ccccc1)c1ccc(OCCN(C)C)cc1)c1ccccc1 [Tamoxifen, reference compound] was tested. Which IC50 did it give?
A: The IC50 was 9.2 µM.
